For the experiment, the target named is recombinant GST-Gfi1 protein (UniProt P70338). Nature of the experiment: pull-down.

The chains behind the UniProt entries cited, without tags or fusion partners.
UniProt P70338: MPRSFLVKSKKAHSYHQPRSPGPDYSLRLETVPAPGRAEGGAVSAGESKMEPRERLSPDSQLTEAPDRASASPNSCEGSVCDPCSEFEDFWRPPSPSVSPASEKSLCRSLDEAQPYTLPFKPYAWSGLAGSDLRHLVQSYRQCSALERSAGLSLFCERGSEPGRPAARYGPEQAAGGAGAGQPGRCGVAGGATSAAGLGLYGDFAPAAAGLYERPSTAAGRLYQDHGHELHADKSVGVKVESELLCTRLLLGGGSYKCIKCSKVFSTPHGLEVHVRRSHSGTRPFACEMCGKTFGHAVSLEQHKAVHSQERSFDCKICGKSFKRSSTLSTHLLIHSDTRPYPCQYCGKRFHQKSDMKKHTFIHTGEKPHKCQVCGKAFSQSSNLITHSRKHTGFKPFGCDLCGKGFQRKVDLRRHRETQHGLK

No constants are given. Whether binding was seen depends on the method and setting. Binding seen in cells or lysates may run through a third protein. Some entries that bind do so weakly or less than the wild type. Sequences can lack the tags named with a protein.

B1: Myc-tagged Atoh1 (protein, UniProt P48985 1-351)
chain: MSRLLHAEEWAEVKELGDHHRHPQPHHVPPLTPQPPATLQARDLPVYPAELSLLDSTDPRAWLTPTLQGLCTARAAQYLLHSPELGASEAAAPRDEADSQGELVRRSGCGGLSKSPGPVKVREQLCKLKGGVVVDELGCSRQRAPSSKQVNGVQKQRRLAANARERRRMHGLNHAFDQLRNVIPSFNNDKKLSKYETLQMAQIYINALSELLQTPNVGEQPPPPTASCKNDHHHLRTASSYEGGAGASAVAGAQPAPGGGPRPTPPGPCRTRFSGPASSGGYSVQLDALHFPAFEDRALTAMMAQKDLSPSLPGGILQPVQEDNSKTSPRSHRSDGEFSPHSHYSDSDEAS
As for B1, the binding result was “binds”.

The values above are taken from article doi:10.1101/767574.
